± gives the uncertainty stated by the source. Many entries were measured with a wide error.
Assay: self-splicing fitness, log relative to wild type (ln ratio); higher = more splicing; Tetrahymena group I intron in knt gene, E. coli kanamycin selection, DiMSum; sequences stand for … in CUCUCU…GGAGGGAAAAGUUAUCAGGCAUGCACCUGGUAGCUAGUCUUUAAACCAAUAGAUUGCAUCGGUUUAAAAGGCAAGACCGUCAAAUUGCGGGAAAGGGGUCAACAGCCGUUCAGUACCAAGUCUCAGGGGAAACUUUGAGAUGGCCUUGCAAAGGGUAUGGUAAUAAGCUGACGGACAUGGUCCUAACCACGCAGCCAAGUCCUAAGUCAACAGAUCUUCUGUUGAUAUGGAUGCAGUUCACAGACUAAAUGUCGGUCGGGGAAGAUGUAUUCUUCUCAUAAGAUAUAGUCGGACCUCUCCUUAAUGGGAGCUAGCGGAUGAAGUGAUGCAACACUGGAGCCGCUGGGAACUAAUUUGUAUGCGAAAGUAUAUUGAUUAGUUUUGGAGUACUCGUGGUCG
In short: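 The eight P1ex-region nucleotides of an intron in the knt kanamycin-resistance gene on pET-22b(+) were all randomised and the library put into E. coli BL21(DE3). Six replicate transformations were grown overnight at 37°C or 30°C on LB agar with or without 25 μg/mL kanamycin, together with 100 μg/mL carbenicillin, 50 μM IPTG and 0.2% rhamnose. Colonies were pooled and amplicon-sequenced on an Illumina HiSeq 2500. Fitness from DiMSum is the error-weighted combination of wild-type-normalised replicate fold changes, kanamycin over none.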

Sequence	self-splicing fitness (ln) (30 °C)	self-splicing fitness (ln) (37 °C)
AGACAGCAAUAUUACGAAAC	-3.76 ± 0.27	-2.66 ± 0.34
GCGUAGCAAUAUUACGCCCU	0.121 ± 0.79	-0.681 ± 1.4
GUAAAGCAAUAUUACGCUCC	-3.66 ± 0.73	–
AACCAGCAAUAUUACGUCGG	-3.79 ± 0.12	-1.41 ± 0.094
CUUUAGCAAUAUUACGGUGA	-4.42 ± 0.51	–
UGUGAGCAAUAUUACGAUUU	-4.55 ± 0.6	–
GCUUAGCAAUAUUACGCAGC	-2.77 ± 0.76	-2.39 ± 1.1
CCAUAGCAAUAUUACGUCCC	-3.06 ± 1.1	–
CGAAAGCAAUAUUACGCCAC	–	-2.05 ± 0.57
GGAUAGCAAUAUUACGUGGG	-5.27 ± 0.51	–
CUAGAGCAAUAUUACGGGGU	-4.73 ± 0.59	–
ACGGAGCAAUAUUACGAAGU	-5.18 ± 1	-3.86 ± 0.73
UCGGAGCAAUAUUACGGGCU	-2.08 ± 0.8	-1.54 ± 1.2
UUGGAGCAAUAUUACGAACA	-1.14 ± 0.63	–
CUGGAGCAAUAUUACGAAUU	-3.48 ± 0.56	–
UGACAGCAAUAUUACGGGCC	-3.34 ± 0.22	-2.23 ± 0.27
ACGGAGCAAUAUUACGCCGU	-2.89 ± 0.51	-1.98 ± 0.57
CAAGAGCAAUAUUACGACGU	-2.88 ± 0.23	-2.57 ± 0.54
CCGAAGCAAUAUUACGACAU	-3.977 ± 0.028	-2.82 ± 0.04
CGUCAGCAAUAUUACGUCAC	-3.16 ± 0.54	–

Some values from the results shown.
self-splicing fitness (ln) (30 °C), GCGUAGCAAUAUUACGCCCU reads 0.121 ± 0.79
self-splicing fitness (ln) (37 °C), UCGGAGCAAUAUUACGGGCU reads -1.54 ± 1.2
self-splicing fitness (ln) (30 °C), CCAUAGCAAUAUUACGUCCC reads -3.06 ± 1.1
self-splicing fitness (ln) (30 °C), GUAAAGCAAUAUUACGCUCC reads -3.66 ± 0.73

(next part)

Sequence	self-splicing fitness (ln) (30 °C)	self-splicing fitness (ln) (37 °C)
CUAAAGCAAUAUUACGGACC	–	-1.98 ± 0.69
ACAGAGCAAUAUUACGGAAC	-4.05 ± 0.54	–
UACCAGCAAUAUUACGAUAC	-5.03 ± 1	–
UUCGAGCAAUAUUACGCGCU	-0.864 ± 0.76	-2.3 ± 0.78
AAGUAGCAAUAUUACGUACU	-0.863 ± 0.19	-0.429 ± 0.19
ACUGAGCAAUAUUACGUCGA	-3.59 ± 0.22	-2.07 ± 0.18
GGCGAGCAAUAUUACGCACC	-1.44 ± 0.51	–
GCUGAGCAAUAUUACGGCUU	–	-1.84 ± 0.52
CCUGAGCAAUAUUACGCUUG	-4.16 ± 0.72	–
UGAUAGCAAUAUUACGAUGU	-2.72 ± 0.63	–
UAAGAGCAAUAUUACGCCGC	–	-2.88 ± 1.1
GCCAAGCAAUAUUACGAGUU	-1.7 ± 0.066	-0.45 ± 0.08
UUGCAGCAAUAUUACGUGGC	-5.61 ± 0.71	–
GGGGAGCAAUAUUACGAGCA	–	-1.4 ± 0.55
UGCGAGCAAUAUUACGGAGA	-3.53 ± 0.73	-3.5 ± 0.6
CAUGAGCAAUAUUACGAUCG	-0.0708 ± 0.12	-0.399 ± 0.14
GUCUAGCAAUAUUACGUCAG	-2.71 ± 1.1	-0.648 ± 0.73
GGCAAGCAAUAUUACGCCCG	–	-1.54 ± 0.69
AGGGAGCAAUAUUACGCCGA	–	-2.2 ± 1.1
CUUGAGCAAUAUUACGUAAA	-4.89 ± 1	–

Sequence	self-splicing fitness (ln) (30 °C)	self-splicing fitness (ln) (37 °C)
CCUCAGCAAUAUUACGAACC	-3.12 ± 1.1	-1 ± 0.65
GGGAAGCAAUAUUACGAAUA	-3.36 ± 0.61	–
CAUGAGCAAUAUUACGAGCU	–	-2.7 ± 0.61
CUCAAGCAAUAUUACGCUCC	-3.52 ± 1.1	-2.07 ± 0.57
UGAGAGCAAUAUUACGCCGA	–	-0.778 ± 1.4
AUCUAGCAAUAUUACGCUGG	-4.42 ± 0.51	-3.3 ± 0.52
CAAUAGCAAUAUUACGAGCC	-2.42 ± 0.9	-2.11 ± 0.64
AGAGAGCAAUAUUACGCCAU	-3.13 ± 1	–
UCGGAGCAAUAUUACGGAAU	-3.86 ± 1	–
GGAUAGCAAUAUUACGAAGC	–	0.417 ± 0.82
CCAGAGCAAUAUUACGGAUC	–	-1.1 ± 0.59
UUUAAGCAAUAUUACGCAAC	–	-2.89 ± 1.1
GACAAGCAAUAUUACGAGAG	-3.18 ± 0.17	-2.96 ± 0.21
UUAGAGCAAUAUUACGCCAU	–	-1.47 ± 0.59
CGCGAGCAAUAUUACGUGCG	-4.81 ± 0.59	–
CCGGAGCAAUAUUACGUGAA	-3.66 ± 0.52	–
CUGGAGCAAUAUUACGAUAA	-1.36 ± 0.6	-1.09 ± 0.64
AGGGAGCAAUAUUACGACGG	-4.4 ± 1	-3.09 ± 1
GAGUAGCAAUAUUACGCGGC	-3.47 ± 1	–
